# According to PubChem BioAssay AID1347076 (National Center for Advancing Translational Sciences (NCATS), 2019):
# About 13,000 (3.2%) of roughly 400,000 compounds were called active. The inconclusive results got no clear call from the source; some entries with a clear call stand among them for comparison. Calls follow the shape of the dose curve; as a rule, active = well fitted cell-killing curve with a large enough effect; inconclusive = small, poorly fitted or top-dose-only effect, or effect the other way; inactive = flat fitted curve, though single readings scatter. A potency beside an inconclusive call is a rough fit, not a confirmed value.
# Experiment: qHTS assay for MDR1-selective chemotherapeutics: Primary screen using the drug-selected MDR subline cells KB-V1; also: nearly all actives have a fitted effect of over 60% in size
# Conditions: KB-V1 MDR cells viability, CellTiter-Glo, 72 h; activity change, negative = cytotoxicity: at 46.1 µM (top of the series)
# In short: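 Following 72 h at 37 degrees C with compound, KB-V1 cell viability was read by CellTiter-Glo luminescence, medium being phenol-red-free DMEM plus 10% FBS; concentration-response parameters came from normalized, curve-fitted qHTS data.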
# % is scaled to controls: 0 for no effect and ±100 for the full control effect; potency is read from the fitted curve at half-maximal effect.
Structure (SMILES),"activity change, negative = cytotoxicity",Potency
Cc1ccc(C)c(N2CCN(CCCNC(=O)Cn3ncc4c5ccccc5n(C)c4c3=O)CC2)c1,inactive: 0%,–
CCOC(=O)c1cn(-c2ccccc2)nc1-c1cccnc1,–,"inconclusive: 8.2 µM [cytotoxic, partial curve]"
CN(C)c1ccc(CNC(=O)/C=C/[C@H]2O[C@@H](n3ccc(=O)[nH]c3=O)[C@H](O)[C@@H]2O)cc1,inactive: -2.56%,–
Cc1ccc(S(=O)(=O)/N=C2\C(=O)c3ccccc3C([O-])=C2n2cc[n+](CCC(C)C)c2)cc1,–,"inconclusive: 29.1 µM [cytotoxic, partial curve, poor fit]"
CC(C)C[C@H]1COc2cc(N3CCC[C@@H]3CO)ccc2S(=O)(=O)N1,–,"inconclusive: 23.1 µM [cytotoxic, partial curve, poor fit]"
CC(C)c1ccc(C(C(=O)NC2CCCC2)N(C(=O)c2csnn2)C2CC2)cc1 (stereo unspecified),–,"inconclusive: 4.61 µM [cytotoxic, full curve]"
C#CCn1cc(C=C2C(=O)c3ccccc3C2=O)c2ccccc21,inactive: -4.61%,–
COc1ccc(Nc2ncnc3c2oc2ccccc23)cc1,inactive: -22%,–
O=C(O)COCC(=O)Nc1cc(C(F)(F)F)cc(C(F)(F)F)c1,–,"inconclusive: 1.64 µM [rising, partial curve, poor fit]"
COc1cc(OC)cc(C(=O)NC(=S)Nc2ccc(N3CCCC3)cc2)c1,–,"inconclusive: 29.1 µM [cytotoxic, partial curve, poor fit]"
COc1ccc(-c2cc(C(=O)N(C)Cc3nc4ccccc4c(=O)[nH]3)c3ccccc3n2)cc1OC,–,"inconclusive: 29.1 µM [cytotoxic, single point]"
Cc1cc(NC(=O)Cn2cnc3sc(C)c(-c4ccccc4)c3c2=O)no1,–,active: 20.6 µM
CC(C)Cn1cnc2c(c1=N)C(c1ccccc1)C1=C(CC(C)(C)CC1=O)O2 (stereo unspecified),–,"inconclusive: 0.651 µM [cytotoxic, full curve, poor fit]"
O=C(Cc1csc(-c2ccccc2)n1)Nc1ccc(C(F)(F)F)cc1,inactive: -3.19%,–
CCOC(=O)C1=CCN(S(=O)(=O)c2ccc(Cl)cc2)C1c1ccccc1 (stereo unspecified),–,"inconclusive: 29.1 µM [cytotoxic, single point]"
O=C(O)c1ccccc1C(=O)NCc1ccc(F)cc1,inactive: 18.6%,–
Cc1cc(OCc2cc(C(=O)N(C)Cc3ccccn3)no2)cc(C)c1Cl,–,"inconclusive: 18.4 µM [cytotoxic, single point]"
Cc1ccc2c(c1)N(CC(=O)NCCc1ccccc1)C(=O)c1cccnc1O2,inactive: 29.2%,–
CCOC(=O)CNS(=O)(=O)c1ccc(C)cc1,–,"inconclusive: 29.1 µM [rising, single point]"
CCOC(=O)c1ccc(S(=O)(=O)N2CCN(c3ccccn3)CC2)cc1,–,"inconclusive: 16.4 µM [cytotoxic, single point]"
Cc1ccc2c(N)c(C)ccc2c1,–,"inconclusive: 14.6 µM [rising, single point]"
Cc1ccc2[nH]c(=O)c(CN(Cc3ccccc3)Cc3nnnn3Cc3ccccc3)cc2c1,inactive: 15%,–
CCOC(=O)c1c(-c2ccc(Br)cc2)csc1NC(=O)c1ccccc1F,–,"inconclusive: 18.4 µM [rising, partial curve]"
COc1ccc(CC(=O)NCCc2ccc(Cl)cc2Cl)cc1,–,"inconclusive: 29.1 µM [cytotoxic, single point]"

# Reprinted at random: 2 entries already listed, in no set order.
Structure (SMILES),"activity change, negative = cytotoxicity",Potency
Cc1cc(NC(=O)Cn2cnc3sc(C)c(-c4ccccc4)c3c2=O)no1,–,active: 20.6 µM
Cc1cc(OCc2cc(C(=O)N(C)Cc3ccccn3)no2)cc(C)c1Cl,–,"inconclusive: 18.4 µM [cytotoxic, single point]"

# Later entries.

Structure (SMILES),"activity change, negative = cytotoxicity",Potency
CC(C)(C)NC(=O)NC(=O)CN1CCN(c2ccc(O)cc2)CC1,–,"inconclusive: 10.3 µM [cytotoxic, partial curve]"
CCc1cc2c(=O)n(Cc3ccco3)c(SCc3c(C)noc3C)nc2s1,–,active: 2.91 µM
CCOC(=O)c1c(C)oc2ccc(NS(=O)(=O)c3ccc4c5c(cccc35)C(=O)N4)cc12,inactive: -27.5%,–
COc1cc(C2C(c3ccccc3)C(c3cc(OC)cc(=O)o3)C2c2ccccc2)oc(=O)c1 (stereo unspecified),–,active: 6.51 µM
O=C(NCC(c1ccco1)N1CCc2ccccc2C1)c1ccc(Cl)cc1 (stereo unspecified),–,"inconclusive: 7.31 µM [cytotoxic, partial curve]"
Cc1ccc([N+](=O)[O-])c(OCCCN2CCCCCC2)c1,–,"inconclusive: 18.4 µM [cytotoxic, single point]"
CC(CCCC(C)(C)O)NC(=O)c1ccc2oc(CCc3ccccc3)nc2c1 (stereo unspecified),–,"inconclusive: 9.2 µM [cytotoxic, partial curve, poor fit]"
CCOC(=O)N1CCN(C(=O)c2cnn3ccccc23)CC1,–,"inconclusive: 29.1 µM [rising, single point]"
Nc1ncc(-c2nnnn2-c2ccc(Cl)cc2)c(-c2ccc(Cl)cc2)n1,–,active: 6.51 µM
Cc1cccc(C2CC(c3ccc(Cl)cc3)Nc3nc(N)nn32)c1 (stereo unspecified),inactive: -9.52%,–
O=C(CCCn1c(=O)[nH]c2cc(Cl)ccc2c1=O)NCCCN1CCCC1,–,"inconclusive: 29.1 µM [rising, single point]"
CCCCCCCCCCCCN1C(=O)CSC1c1cccnc1 (stereo unspecified),–,"inconclusive: 20.6 µM [cytotoxic, single point]"
CCOc1cc(N2CCOCC2)c(OCC)cc1NC(=S)NCCCOC,inactive: -17.1%,–
Cc1ccc(CN2C(=O)c3ccccc3C2c2nnnn2C(C)C)cc1 (stereo unspecified),–,"inconclusive: 14.6 µM [cytotoxic, single point]"
CC1CCCCN1CC(O)COCc1ccccc1 (stereo unspecified),–,"inconclusive: 29.1 µM [rising, single point]"
Cn1c(CN2CCN(c3cccc(Cl)c3)CC2)nc2ccccc21,–,"inconclusive: 11.6 µM [cytotoxic, partial curve]"
CCSc1nc(-c2ccc(OC)cc2)cc(-c2ccccc2)c1C#N,inactive: -25.8%,–
C[C@H]1CN([C@@H](C)CO)C(=O)c2cc(NC(=O)C3CCCCC3)ccc2O[C@H]1CN(C)S(=O)(=O)c1ccccc1,inactive: 11.6%,–
Cc1ccccc1NC(=O)COc1ccc(Br)cc1C,–,"inconclusive: 7.31 µM [cytotoxic, partial curve, poor fit]"
Cc1nc(NCc2ccco2)[nH]c(=O)c1CCC(C)C,inactive: -1.82%,–
COCCNC(=S)N1CCc2cc(OC)c(OC)cc2C1COc1ccc(F)cc1 (stereo unspecified),inactive: -0.55%,–
CCCCOCC(O)Cn1c(C)nc2ccccc21 (stereo unspecified),–,"inconclusive: 14.6 µM [cytotoxic, single point]"
CCOC(=O)c1cc2occc2n1CC(=O)Nc1ccc(OC)cc1OC,–,"inconclusive: 11.6 µM [cytotoxic, partial curve]"
CN(c1cccc(Cl)c1)S(=O)(=O)c1cccc(C(=O)Nc2nc3ccccc3[nH]2)c1,–,"inconclusive: 20.6 µM [cytotoxic, single point]"

Structure (SMILES),"activity change, negative = cytotoxicity",Potency
Cc1ccnc(N2CCC(C(=O)Nc3ccc4c(c3)OCCO4)CC2)n1,–,"inconclusive: 32.6 µM [cytotoxic, partial curve, poor fit]"
CCOc1ccc(S(=O)(=O)Nc2cccc(C(=O)N3CCN(c4ccccc4O)CC3)c2)cc1,–,active: 20.6 µM
CCN1CCN(c2cc(C)c3cc(NC(=S)N4CCOCC4)ccc3n2)CC1,inactive: 0%,–
COC(=O)c1ccc(C(=O)OC)c(NC(=O)C2CCCO2)c1 (stereo unspecified),–,"inconclusive: 32.6 µM [rising, single point]"
CC(=O)Nc1ccc(S(=O)(=O)N2CCSc3ccccc32)cc1,inactive: 0%,–
CCCCOC(=O)CSc1nnc(-c2cc(OC)c(OC)c(OC)c2)o1,inactive: -1.74%,–
NS(=O)(=O)c1ccc(NC(=O)CSc2ccccc2)cc1,–,"inconclusive: 18.4 µM [rising, single point]"
CC(=O)Nc1cc(-c2ccc(C(=O)NC3CC3)cc2)cn2c(-c3ccc(F)c(Cl)c3)cnc12,–,"inconclusive: 23.1 µM [cytotoxic, single point]"
CC(=O)c1c(C)oc2c(Cl)cc(NS(=O)(=O)c3ccc(Cl)cc3)cc12,–,"inconclusive: 18.4 µM [cytotoxic, partial curve]"
COc1ccc(CN(Cc2cc3cc(OC)c(OC)cc3[nH]c2=O)C(=O)NC2CCCCC2)cc1,–,"inconclusive: 4.61 µM [cytotoxic, full curve]"
CCOC(=O)C1(CCc2ccccc2)CCN(Cc2ccc(OC)cc2)CC1,inactive: 3.91%,–
COc1cccc(CN(C)C(=O)C23CC4CC(CC(NC(C)=O)(C4)C2)C3)c1OC,inactive: -10.6%,–
Cc1nn(S(=O)(=O)c2ccc(Br)cc2)c(C)c1S(=O)(=O)N1CCOCC1,inactive: 0%,–
COc1ccc(N2CCN(C(=O)c3ccc(-n4nc(C)cc4C)cc3)CC2)cc1,–,active: 16.4 µM
CN(C)c1ccc(C(=O)/C=C/c2ccccc2)cc1,–,"inconclusive: 29.1 µM [cytotoxic, single point]"
Cc1cc2nc(C3CCCCC3)c(Cc3ccccc3C(F)(F)F)n2c(C)c1Br,–,"inconclusive: 18.4 µM [cytotoxic, partial curve, poor fit]"
O=C1NC(=S)SC1=Cc1ccc(Cl)cc1,inactive: -5.98%,–
Cn1cnnc1SCC(=O)NC(=O)NCc1ccccc1,–,"inconclusive: 20.6 µM [rising, partial curve, poor fit]"
Cc1ccc(S(=O)(=O)NC(CC(=O)O)c2ccc(F)cc2)cc1 (stereo unspecified),–,"inconclusive: 14.6 µM [rising, partial curve, poor fit]"
COc1cc(C(=S)N2CCOCC2)cc(OC)c1OS(=O)(=O)c1ccc(C)cc1,inactive: 7.46%,–
CCOc1cc2[nH]c(=O)n(CCCCC(=O)N3CCCCCC3)c(=O)c2cc1OCC,–,"inconclusive: 20.6 µM [cytotoxic, single point]"
Cc1ccc(C)c(S(=O)(=O)N2CCN(C(=O)Cc3ccccc3)CC2)c1,inactive: -19.5%,–
CC(C)c1ccc(Nc2nc(Nc3ccc(Cl)cc3)nc(N3CCOCC3)n2)cc1,–,"inconclusive: 16.4 µM [rising, partial curve, poor fit]"
